Hit rate of the full screen: of about 320,000 compounds, about 740 (0.23%) were called active. The shares of active, inactive and inconclusive entries below differ from those in the screen. Calls come from the whole dose curve; as a rule, active = well fitted activation curve with a large enough effect; inconclusive = small, poorly fitted or top-dose-only effect; inactive = no such curve, though single readings can be large or run the other way. Potencies beside an inconclusive call are fits to weak or partial responses and may not hold up.
Experiment: qHTS Assay for Small Molecule Inhibitors of Mitochondrial Division or Activators of Mitochondrial Fusion; note: nearly all actives have a fitted effect of over 45% in size
Settings: S. cerevisiae fusion-defective mutant growth rescue, CellTiterGlo 48 h; series mostly up to 46.1 µM
Summary of the method: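 Compounds are tested for their ability to restore growth of mitochondrial fusion-defective yeast strains at non-permissive 37C in YPEG medium over 48 hours. Viability is quantified by luciferase luminescence.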
Potency is the fitted concentration of half-maximal effect.

**Q.** With `O=C(Nc1cc(C(F)(F)F)ccc1-n1cncn1)c1ccc([N+](=O)[O-])o1` as the molecule, how does the Potency read?
**A.** The Potency was “inactive”.

**Q.** With `CCCCSc1nc(N)c(C#N)c(-c2cccs2)c1C#N` as the molecule, how does the Potency read?
**A.** The Potency was active: 3.98 µM.

**Q.** For `O=c1c(Cc2ccccc2)c(O)ccn1C1CCCCCCC1`, which Potency is on record?
**A.** The Potency was inconclusive: 20 µM [activator, single point].

**Q.** Which Potency does the source give for `CCOc1ccccc1NC(=O)CN(c1ccc(C)cc1)S(=O)(=O)c1c(C)noc1C` here?
**A.** Its Potency is inconclusive: 20 µM [activator, partial curve].

**Q.** For `Cc1ccc(-n2c(C)cc(C(=O)CSc3nncs3)c2C)cc1`, which Potency is on record?
**A.** The Potency was inconclusive: 5.62 µM [activator, full curve].

**Q.** Which Potency does the source give for `CCCCCOC(=O)c1ccc(NC(=O)c2ccco2)cc1` here?
**A.** Its Potency is inconclusive: 15.8 µM [activator, partial curve].

**Q.** With `CCNC(=O)c1ccccc1CCc1ccccc1` as the molecule, how does the Potency read?
**A.** The Potency was inconclusive: 22.4 µM [activator, single point].

**Q.** With `CC1CCN(c2ccc(-c3cccc(NC(=O)C(F)(F)F)c3)nn2)CC1` as the molecule, how does the Potency read?
**A.** Its Potency is inconclusive: 3.98 µM [activator, full curve, poor fit].

**Q.** For `Cc1ccc(C(=O)Nc2cc3c(cc2N2CCCCC2)n(C)c(=O)n3C)cc1`, which Potency is on record?
**A.** Its Potency is inconclusive: 5.01 µM [activator, single point].

**Q.** For `COc1ccc(C2CC(c3ccccc3)=NN2c2ccc(S(N)(=O)=O)cc2)cc1` (stereo not drawn), which Potency is on record?
**A.** The Potency was inconclusive: 14.1 µM [activator, partial curve].

**Q.** Which Potency does the source give for `CCCCCCCCOc1ccc(C(=O)O)cc1` here?
**A.** Its Potency is active: 12.6 µM.

**Q.** Which Potency does the source give for `Cc1sc(NC(=O)c2ccco2)c(C(c2cccnc2)N2CCC(C)CC2)c1C` (stereo not drawn) here?
**A.** Its Potency is inconclusive: 11.2 µM [activator, partial curve].

**Q.** For `CCC(C(=O)NCCc1ccc(OC)cc1OC)n1nc(C)n2c(cc3occc32)c1=O` (stereo not drawn), which Potency is on record?
**A.** Its Potency is “inactive”.

**Q.** With `O=C(CCl)N(c1ccccc1)c1ccccc1` as the molecule, how does the Potency read?
**A.** Its Potency is “inactive”.

**Q.** Which Potency does the source give for `COc1ccc(S(=O)(=O)N2CCCCCC2)cc1C(=O)N1CCN(c2ccccc2C)CC1` here?
**A.** Its Potency is inconclusive: 22.4 µM [activator, single point].

**Q.** Which Potency does the source give for `CC(C)CNC(=O)c1ccccc1NC(=O)c1ccccc1N(C)S(C)(=O)=O` here?
**A.** Its Potency is inconclusive: 28.2 µM [activator, single point].

**Q.** For `C=CCN(c1ccccc1)S(=O)(=O)c1ccc2c(c1)NC(=O)C(C)S2` (stereo not drawn), which Potency is on record?
**A.** Its Potency is inconclusive: 31.6 µM [activator, single point].

**Q.** Which Potency does the source give for `N#CC1=C(N)OC2=C(CC/C2=C\c2ccc(F)cc2)C1c1ccc(F)cc1` (stereo not drawn) here?
**A.** The Potency was inconclusive: 20 µM [activator, single point].

**Q.** For `O=C(/C=C/c1ccc(Cl)c([N+](=O)[O-])c1)Nc1cccc(NC(=O)c2ccco2)c1`, which Potency is on record?
**A.** The Potency was inconclusive: 35.5 µM [activator, single point].

**Q.** Which Potency does the source give for `CCOC(=O)C1=C(CNCc2ccc(C)cc2)NC(=O)NC1c1cc(C)ccc1C` (stereo not drawn) here?
**A.** Its Potency is inconclusive: 12.6 µM [activator, partial curve].

**Q.** With `COC(=O)C1=C(C)NC(C)=C(C(=O)OCCN(C)Cc2ccccc2)C1c1cccc([N+](=O)[O-])c1` (stereo not drawn) as the molecule, how does the Potency read?
**A.** Its Potency is inconclusive: 1.84 µM [activator, single point].

**Q.** Which Potency does the source give for `COc1cc(C)c(-c2cc(C(=O)O)c(C)o2)cc1C(C)C` here?
**A.** Its Potency is inconclusive: 12.6 µM [activator, partial curve].

**Q.** Which Potency does the source give for `O=c1c2ccccc2nc(/C=C/c2ccccc2)n1CCCO` here?
**A.** Its Potency is inconclusive: 17.8 µM [activator, partial curve].

**Q.** Which Potency does the source give for `CCOC(=O)COc1ccc2c(C)cc(=O)oc2c1C(=O)c1ccccc1` here?
**A.** The Potency was “inactive”.

**Q.** With `COC(=O)c1c(NC(=O)Cn2cnc([N+](=O)[O-])n2)sc2c1CCC(C)C2` (stereo not drawn) as the molecule, how does the Potency read?
**A.** Its Potency is inconclusive: 25.1 µM [activator, single point].

**Q.** Which Potency does the source give for `CCOc1cccc(/C=C/c2ccc3cccc(O)c3n2)c1O` here?
**A.** The Potency was “inactive”.

**Q.** For `C/C(=N\NC(=S)NC1CCCCC1)c1ccccc1`, which Potency is on record?
**A.** Its Potency is “inactive”.

**Q.** Which Potency does the source give for `S=C(Nc1ccccc1)N1CCOCC1` here?
**A.** The Potency was “inactive”.

**Q.** Which Potency does the source give for `Cc1cccc(-c2nnc(NC(=O)c3ccc(Cl)cc3)o2)c1` here?
**A.** Its Potency is inconclusive: 3.98 µM [activator, full curve, poor fit].

**Q.** Which Potency does the source give for `COc1cc2c3nnc(-c4ccccc4)c-3cn(Cc3ccccc3F)c2cc1OC` here?
**A.** The Potency was “inactive”.

**Q.** Which Potency does the source give for `COc1ccc(NS(=O)(=O)c2ccc3c(c2)Cc2ccccc2-3)cn1` here?
**A.** The Potency was inconclusive: 22.4 µM [activator, single point].

**Q.** With `C=CCN(C(=O)C1CC(=O)N(C2CCCC2)C1)c1nc(-c2ccc(S(C)(=O)=O)cc2)cs1` (stereo not drawn) as the molecule, how does the Potency read?
**A.** Its Potency is “inactive”.

**Q.** With `O=[N+]([O-])c1cccc(-c2c(-c3ccccc3)ncc3ccc(F)cc23)c1` as the molecule, how does the Potency read?
**A.** Its Potency is inconclusive: 28.2 µM [activator, single point].

**Q.** With `S=C1SCN(Cc2cccnc2)CN1Cc1ccccc1` as the molecule, how does the Potency read?
**A.** The Potency was “inactive”.

**Q.** With `COc1ccccc1N1CCN(C(C)C(=O)N2CC(C)OC(C)C2)CC1` (stereo not drawn) as the molecule, how does the Potency read?
**A.** The Potency was “inactive”.

**Q.** Which Potency does the source give for `Cc1onc(-c2ccccc2)c1C(=O)Nc1ccc(S(=O)(=O)N2CCCC2)cc1` here?
**A.** Its Potency is “inactive”.

**Q.** With `Cc1cccc(N2CCN(C(=O)COCc3cc(-c4ccc5c(c4)OCO5)on3)CC2)c1C` as the molecule, how does the Potency read?
**A.** The Potency was inconclusive: 35.5 µM [activator, single point].

**Q.** For `COc1ccc(C)cc1S(=O)(=O)Nc1ccc(F)c(Cl)c1`, which Potency is on record?
**A.** Its Potency is inconclusive: 2.82 µM [activator, partial curve, poor fit].

**Q.** With `COc1ccc(S(=O)(=O)Nc2ccccc2C(N)=O)cc1OC` as the molecule, how does the Potency read?
**A.** Its Potency is inconclusive: 35.5 µM [activator, single point].

**Q.** Which Potency does the source give for `O=c1[nH]cnc2cc(-c3ccc(Br)cc3)sc12` here?
**A.** The Potency was inconclusive: 14.1 µM [activator, partial curve].

**Q.** With `Cc1cc(C(=O)OCC(=O)N2c3ccccc3NC(=O)C2(C)C)c(C)n1-c1ccccc1` as the molecule, how does the Potency read?
**A.** Its Potency is inconclusive: 31.6 µM [activator, single point].

**Q.** With `Cc1cc(NS(=O)(=O)c2ccc(NC(=O)/C=C/c3ccc(C)o3)cc2)nc(C)n1` as the molecule, how does the Potency read?
**A.** The Potency was “inactive”.

**Q.** With `O=C(C1=C(O)C(=O)N(CCN2CCOCC2)C1c1cccc(O)c1)c1cc2ccccc2o1` (stereo not drawn) as the molecule, how does the Potency read?
**A.** The Potency was “inactive”.

**Q.** For `COc1ccc(N2CCN(C(=O)CN3CCN(C(c4ccccc4)c4ccccc4)CC3)CC2)cc1`, which Potency is on record?
**A.** The Potency was inconclusive: 22.4 µM [activator, single point].

**Q.** For `O=C(Cn1cc2c(n1)CCCC2)Nc1cc(-c2cccc(Cl)c2)no1`, which Potency is on record?
**A.** Its Potency is inconclusive: 22.4 µM [activator, single point].

**Q.** With `CCN1C(=O)[C@H]2[C@@H](c3ccc(-c4ccc(OC)cc4)cc3)N[C@@](CC(C)C)(C(=O)OC)[C@H]2C1=O` as the molecule, how does the Potency read?
**A.** Its Potency is inconclusive: 28.2 µM [activator, single point].

**Q.** For `O=C1OC(c2ccc3c(c2)OCO3)N(C(=O)c2ccc(Cl)c(Cl)c2)c2ccccc21` (stereo not drawn), which Potency is on record?
**A.** The Potency was inconclusive: 12.6 µM [activator, partial curve].

**Q.** Which Potency does the source give for `Cc1ccc(S(=O)(=O)N2CCC(C(=O)Nc3ccc(C(C)C)cc3)CC2)cc1` here?
**A.** Its Potency is inconclusive: 12.6 µM [activator, partial curve].

**Q.** With `O=C(/C=C/c1ccccc1)/C=C/c1ccccc1` as the molecule, how does the Potency read?
**A.** Its Potency is inconclusive: 31.6 µM [activator, partial curve, poor fit].

**Q.** For `Cc1ccc(NS(=O)(=O)c2cc(C(=O)Nc3cccc([N+](=O)[O-])c3)ccc2C)cc1`, which Potency is on record?
**A.** Its Potency is inconclusive: 35.5 µM [activator, single point].

**Q.** For `Cc1sc2ncnc(Sc3ccccc3C(=O)Nc3ccc(Br)cc3)c2c1C`, which Potency is on record?
**A.** Its Potency is inconclusive: 12.6 µM [activator, partial curve].

**Q.** Which Potency does the source give for `Cc1ccc(NC(=O)COc2ccccc2C(=O)NCc2ccccc2)cc1` here?
**A.** Its Potency is inconclusive: 25.1 µM [activator, single point].

**Q.** Which Potency does the source give for `O=C(CSCC(=O)Nc1nccs1)Nc1ccccc1` here?
**A.** The Potency was inconclusive: 7.08 µM [activator, partial curve].

**Q.** Which Potency does the source give for `COc1ccc(-c2cc(-c3ccccc3O)[nH]n2)cc1OC` here?
**A.** The Potency was “inactive”.

**Q.** For `O=C(Nc1oc2ccc(Cl)cc2c(=O)c1-c1ccc(F)cc1)c1ccco1`, which Potency is on record?
**A.** Its Potency is inconclusive: 4.47 µM [activator, partial curve].

**Q.** With `O=C(C/C=N\O)Nc1ccc(Oc2ccccc2)cc1` as the molecule, how does the Potency read?
**A.** The Potency was “inactive”.

**Q.** With `CC(Sc1nc2ccccc2s1)C(=O)NC1CCCc2ccccc21` (stereo not drawn) as the molecule, how does the Potency read?
**A.** Its Potency is inconclusive: 28.2 µM [activator, single point].

**Q.** Which Potency does the source give for `Cc1cc(NC(=O)CCSc2nc(-c3ccco3)cc(C(F)(F)F)n2)no1` here?
**A.** The Potency was “inactive”.

**Q.** Which Potency does the source give for `O=C(c1ccco1)N1CCN(CCCCOc2ccc(F)cc2)CC1` here?
**A.** Its Potency is inconclusive: 5.62 µM [activator, full curve].

**Q.** With `Cc1cc(N2CCN(C(=O)c3ccco3)CC2)nc(-c2ccccc2)n1` as the molecule, how does the Potency read?
**A.** Its Potency is inconclusive: 22.4 µM [activator, partial curve].

**Q.** For `O=C(COc1cccc(F)c1)N1c2ccccc2Sc2ccccc21`, which Potency is on record?
**A.** The Potency was inconclusive: 15.8 µM [activator, single point].

**Q.** Which Potency does the source give for `COc1ccc(NC(=O)c2ccc(-c3ccc(-c4noc(C)n4)cc3C)cc2)cc1N1CCN(C)CC1` here?
**A.** The Potency was inconclusive: 4.61 µM [activator, single point].

**Q.** With `Cc1ccc(S(=O)(=O)Cn2nnnc2CN(Cc2ccco2)Cc2cccs2)cc1` as the molecule, how does the Potency read?
**A.** Its Potency is inconclusive: 17.8 µM [activator, single point].

**Q.** Which Potency does the source give for `O=C(Nc1nc2ccccc2s1)c1ccc(N2CCCCC2)c([N+](=O)[O-])c1` here?
**A.** The Potency was inconclusive: 7.08 µM [activator, partial curve].

**Q.** Which Potency does the source give for `O=C(Oc1c(Cl)cc(Cl)c2cccnc12)c1ccco1` here?
**A.** The Potency was inconclusive: 3.55 µM [activator, full curve].

**Q.** For `O=C(Nc1ccccc1N1CCOCC1)c1cccc(S(=O)(=O)Nc2ccccc2F)c1`, which Potency is on record?
**A.** Its Potency is inconclusive: 10 µM [activator, partial curve].

**Q.** For `CCc1nnc(NC(=O)c2ccc3ccccc3n2)s1`, which Potency is on record?
**A.** The Potency was “inactive”.

**Q.** Which Potency does the source give for `O=C(Oc1cccc(/C=N/Nc2nc(Nc3ccccc3)nc(N3CCOCC3)n2)c1)c1ccco1` here?
**A.** The Potency was inconclusive: 11.2 µM [activator, partial curve].
